Reference: patent publication US20220187321A1
These are yes or no findings as the source states them, for the method shown. Some results given as binding are weak or reduced against the parent protein; the word gives no strength.

Amino acid sequences for entries named in this document (tags omitted). Residues count along the entry.
UniProt P48058, residues 21-902: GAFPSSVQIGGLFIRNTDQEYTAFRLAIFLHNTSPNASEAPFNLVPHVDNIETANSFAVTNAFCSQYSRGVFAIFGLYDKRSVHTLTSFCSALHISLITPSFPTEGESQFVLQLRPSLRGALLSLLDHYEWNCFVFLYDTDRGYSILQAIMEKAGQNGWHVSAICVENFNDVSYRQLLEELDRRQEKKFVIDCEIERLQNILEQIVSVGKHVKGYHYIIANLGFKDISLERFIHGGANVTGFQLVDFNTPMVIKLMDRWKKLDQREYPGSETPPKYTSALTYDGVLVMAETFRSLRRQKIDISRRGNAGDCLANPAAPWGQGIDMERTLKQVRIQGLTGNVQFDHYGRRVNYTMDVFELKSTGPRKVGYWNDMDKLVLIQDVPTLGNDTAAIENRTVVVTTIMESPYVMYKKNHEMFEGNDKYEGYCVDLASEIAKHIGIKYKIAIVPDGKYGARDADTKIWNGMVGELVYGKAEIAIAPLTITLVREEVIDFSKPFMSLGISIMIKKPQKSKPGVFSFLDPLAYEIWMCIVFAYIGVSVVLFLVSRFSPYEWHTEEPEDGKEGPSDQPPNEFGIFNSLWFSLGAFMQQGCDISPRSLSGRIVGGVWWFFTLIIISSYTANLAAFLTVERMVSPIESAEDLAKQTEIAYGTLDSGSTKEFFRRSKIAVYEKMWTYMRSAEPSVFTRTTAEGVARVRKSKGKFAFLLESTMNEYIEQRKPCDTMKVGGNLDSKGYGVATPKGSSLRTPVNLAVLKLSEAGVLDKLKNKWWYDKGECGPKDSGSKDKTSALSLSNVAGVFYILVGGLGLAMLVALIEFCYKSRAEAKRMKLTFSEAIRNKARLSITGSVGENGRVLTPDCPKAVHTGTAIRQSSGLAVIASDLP

What was measured:
[1] = target: Glutamate Ionotropic Receptor AMPA Type Subunit 4 (human) (UniProt P48058); experiment: solid-phase PLA with qPCR readout on human plasma two-fold serially diluted in NPTX2-depleted plasma; capture anti-NPTX2, probes anti-NPTX2 and rabbit anti-GluA4; endogenous complex
[2] = target: Glutamate Ionotropic Receptor AMPA Type Subunit 4 (human) (UniProt P48058); experiment: solid-phase PLA with qPCR readout on 50 uL human plasma of AD (n=33) and control (n=34) subjects; capture anti-NPTX2, probes anti-NPTX2 and rabbit anti-GluA4; endogenous complex
[3] = target: Glutamate Ionotropic Receptor AMPA Type Subunit 4 (human) (UniProt P48058); experiment: solid-phase PLA on serially diluted human plasma; anti-NPTX2 capture, anti-NPTX2 and anti-GluA4 oligonucleotide probes
[4] = target: Glutamate Ionotropic Receptor AMPA Type Subunit 4 (human) (UniProt P48058); experiment: solid-phase PLA on human plasma, larger cohort
[5] = target: Glutamate Ionotropic Receptor AMPA Type Subunit 4 (human) (UniProt P48058); experiment: solid-phase PLA on human plasma (Ctrl n=50, AD n=40)
[6] = target: Glutamate Ionotropic Receptor AMPA Type Subunit 4 (human) (UniProt P48058); experiment: solid-phase PLA on human plasma (Ctrl n=34, AD n=33)
[7] = target: Glutamate Ionotropic Receptor AMPA Type Subunit 4 (human) (UniProt P48058); experiment: solid-phase PLA with qPCR readout on human plasma two-fold serially diluted in PBS; capture anti-NPTX2, probes anti-NPTX2 (plus strand) and rabbit anti-GluA4 (minus strand); endogenous complex
[8] = target: Glutamate Ionotropic Receptor AMPA Type Subunit 4 (human) (UniProt P48058); experiment: solid-phase PLA with qPCR readout on human plasma of AD (n=40) and control (n=50) subjects; probes anti-NPTX2 and rabbit anti-GluA4; endogenous complex

- binding [1]: binds
- binding [2]: binds
- binding [3]: binds
- binding [4]: binds
- binding [5]: binds
- binding [6]: binds
- binding [7]: binds
- binding [8]: binds
B1: Neuronal Pentraxin 2 (ligand, human, UniProt P47972 16-431, looked up)
chain: GAQDSPAPGSRFVCTALPPEAVHAGCPLPAMPMQGGAQSPEEELRAAVLQLRETVVQQKETLGAQREAIRELTGKLARCEGLAGGKARGAGATGKDTMGDLPRDPGHVVEQLSRSLQTLKDRLESLEHQLRANVSNAGLPGDFREVLQQRLGELERQLLRKVAELEDEKSLLHNETSAHRQKTESTLNALLQRVTELERGNSAFKSPDAFKVSLPLRTNYLYGKIKKTLPELYAFTICLWLRSSASPGIGTPFSYAVPGQANEIVLIEWGNNPIELLINDKVAQLPLFVSDGKWHHICVTWTTRDGMWEAFQDGEKLGTGENLAPWHPIKPGGVLILGQEQDTVGGRFDATQAFVGELSQFNIWDRVLRAQEIVNIANCSTNMPGNIIPWVDNNVDVFGGASKWPVETCEERLLDL
